The target of the data set is UAP56 (UniProt Q13838). Briefly: pull-down (NeutrAvidin beads, RNA unclamping assay). The conditions noted are these: releases UAP56 from RNA, 2.2 or 0.44 uM, RNA unclamping: 20 mM HEPES pH 7.9, 40 mM KCl, 2 mM MgCl2, 5% glycerol, 0.1% Igepal CA-630, 1 mM ATP at loading, room temperature, 500 mM KCl wash, recombinant protein, residues 1-428, protein details: 10xHis-3C (N-term).

Construct, isoform or probe ends are uncertain for at least one entry. A weaker result is weaker than the reference pair of the same experiment.

Take UUUUUUUUUUUUUUU [biotinylated 15U RNA]: the binding result runs as follows: (LENG8-PSM (P2) challenge) “binds more weakly”; (SAC3D1-PSM (P5) challenge) “binds more weakly”.

Source of the values: article PMC13391367.
